Source: PMC10058905, “Bioassay-Guided Alkaloids Isolation from Camellia sinensis and Colchicum luteum: In Silico and In Vitro Evaluations for Protease Inhibition” (Molecules, 2023)

Molecular target: T1, Trypsin from bovine pancreas (Bos taurus, UniProt P00760)
T1 construct: gene PRSS1
T1 sequence (P00760 24-246): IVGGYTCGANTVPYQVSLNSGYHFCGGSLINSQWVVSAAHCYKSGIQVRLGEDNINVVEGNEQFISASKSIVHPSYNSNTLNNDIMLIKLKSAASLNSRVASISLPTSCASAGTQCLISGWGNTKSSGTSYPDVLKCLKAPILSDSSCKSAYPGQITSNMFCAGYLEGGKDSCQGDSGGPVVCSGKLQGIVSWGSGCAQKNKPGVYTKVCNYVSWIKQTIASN
Test: biochemical

Compound `COc1cc2c(c(OC)c1OC)-c1ccc(OC)c(=O)cc1[C@@H](NC(C)=O)CC2` [compound 1, colchicine] has a Ki of 690 ± 90 µM.
